Assay results: the supplement of paper PMC10849652
The list shows a part of the results.

Chains of the proteins cited; added tags and fusions are not shown. Lines headed by an entry give the natural chain unless they say otherwise; changes in a name come on top.
UniProt Q8WXD5: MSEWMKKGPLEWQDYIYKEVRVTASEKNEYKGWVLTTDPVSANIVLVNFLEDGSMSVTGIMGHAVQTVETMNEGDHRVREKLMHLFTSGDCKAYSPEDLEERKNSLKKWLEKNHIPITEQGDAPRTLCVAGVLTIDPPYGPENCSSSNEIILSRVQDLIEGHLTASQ
UniProt P30047: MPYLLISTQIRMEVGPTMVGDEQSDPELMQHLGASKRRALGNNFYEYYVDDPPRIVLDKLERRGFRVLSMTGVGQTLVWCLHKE
UniProt Q9NZC3: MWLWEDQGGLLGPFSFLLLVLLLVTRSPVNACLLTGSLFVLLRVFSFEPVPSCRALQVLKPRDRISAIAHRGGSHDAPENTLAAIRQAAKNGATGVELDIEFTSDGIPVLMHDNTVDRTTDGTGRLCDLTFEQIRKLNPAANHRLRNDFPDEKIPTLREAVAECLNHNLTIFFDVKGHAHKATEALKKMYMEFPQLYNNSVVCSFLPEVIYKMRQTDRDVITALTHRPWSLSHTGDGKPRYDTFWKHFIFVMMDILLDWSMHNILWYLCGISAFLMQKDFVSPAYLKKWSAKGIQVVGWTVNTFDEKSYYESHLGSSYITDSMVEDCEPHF
UniProt O75223: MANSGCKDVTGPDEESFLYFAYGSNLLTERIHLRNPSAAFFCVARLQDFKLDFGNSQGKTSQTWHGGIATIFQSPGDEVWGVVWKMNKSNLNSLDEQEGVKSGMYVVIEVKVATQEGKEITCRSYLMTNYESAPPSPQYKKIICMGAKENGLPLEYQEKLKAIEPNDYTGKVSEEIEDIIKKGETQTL
UniProt P11413, whole entry, looked up: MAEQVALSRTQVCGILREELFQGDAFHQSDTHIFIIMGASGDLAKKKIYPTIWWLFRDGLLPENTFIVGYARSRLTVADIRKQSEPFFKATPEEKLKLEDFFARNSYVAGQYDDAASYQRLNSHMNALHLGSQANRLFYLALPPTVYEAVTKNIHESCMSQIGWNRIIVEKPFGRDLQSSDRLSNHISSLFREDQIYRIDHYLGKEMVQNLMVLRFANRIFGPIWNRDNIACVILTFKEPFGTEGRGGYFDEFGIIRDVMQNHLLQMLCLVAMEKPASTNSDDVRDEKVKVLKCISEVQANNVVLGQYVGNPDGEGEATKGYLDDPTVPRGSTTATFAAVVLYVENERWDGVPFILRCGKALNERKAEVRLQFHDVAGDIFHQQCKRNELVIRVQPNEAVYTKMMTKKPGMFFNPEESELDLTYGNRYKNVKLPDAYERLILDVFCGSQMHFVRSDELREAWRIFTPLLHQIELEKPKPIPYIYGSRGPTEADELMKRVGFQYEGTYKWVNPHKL
UniProt Q9BQS8: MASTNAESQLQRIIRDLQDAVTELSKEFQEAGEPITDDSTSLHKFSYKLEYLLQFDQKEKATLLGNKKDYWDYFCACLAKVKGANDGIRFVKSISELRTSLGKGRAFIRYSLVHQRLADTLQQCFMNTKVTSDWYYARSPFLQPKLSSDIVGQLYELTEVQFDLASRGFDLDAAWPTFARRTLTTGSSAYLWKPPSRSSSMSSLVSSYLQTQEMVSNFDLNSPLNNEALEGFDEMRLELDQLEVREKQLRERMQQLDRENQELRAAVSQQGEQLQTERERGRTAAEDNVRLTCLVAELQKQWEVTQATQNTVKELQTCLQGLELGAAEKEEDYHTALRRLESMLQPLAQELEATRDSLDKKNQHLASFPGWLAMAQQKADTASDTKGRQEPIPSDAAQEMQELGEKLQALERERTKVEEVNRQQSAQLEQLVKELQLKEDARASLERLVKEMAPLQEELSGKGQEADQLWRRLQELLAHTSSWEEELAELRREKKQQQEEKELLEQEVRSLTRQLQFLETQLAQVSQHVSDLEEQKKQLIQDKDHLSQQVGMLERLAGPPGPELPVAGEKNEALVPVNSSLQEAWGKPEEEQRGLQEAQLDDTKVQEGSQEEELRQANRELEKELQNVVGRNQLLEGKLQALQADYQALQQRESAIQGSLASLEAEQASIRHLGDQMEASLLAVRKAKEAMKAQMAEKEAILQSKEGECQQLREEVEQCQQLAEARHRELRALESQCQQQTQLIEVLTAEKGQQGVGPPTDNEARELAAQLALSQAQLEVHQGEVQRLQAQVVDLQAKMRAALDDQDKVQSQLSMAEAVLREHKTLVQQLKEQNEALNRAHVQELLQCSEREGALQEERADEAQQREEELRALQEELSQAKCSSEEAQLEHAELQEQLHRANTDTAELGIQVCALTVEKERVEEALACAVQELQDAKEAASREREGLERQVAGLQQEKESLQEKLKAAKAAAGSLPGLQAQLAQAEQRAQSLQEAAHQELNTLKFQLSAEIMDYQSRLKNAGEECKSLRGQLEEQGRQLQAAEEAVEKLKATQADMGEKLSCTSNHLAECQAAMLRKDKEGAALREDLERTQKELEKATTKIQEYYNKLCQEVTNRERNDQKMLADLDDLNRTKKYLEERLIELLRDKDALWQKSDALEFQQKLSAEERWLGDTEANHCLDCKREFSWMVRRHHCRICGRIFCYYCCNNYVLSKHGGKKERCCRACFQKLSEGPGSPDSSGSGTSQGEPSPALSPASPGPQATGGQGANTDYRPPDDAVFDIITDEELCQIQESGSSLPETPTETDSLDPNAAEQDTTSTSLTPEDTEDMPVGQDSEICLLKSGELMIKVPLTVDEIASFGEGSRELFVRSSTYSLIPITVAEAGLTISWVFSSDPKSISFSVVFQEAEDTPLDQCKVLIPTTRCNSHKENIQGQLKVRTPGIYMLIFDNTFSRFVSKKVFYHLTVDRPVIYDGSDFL
UniProt Q9UPW0: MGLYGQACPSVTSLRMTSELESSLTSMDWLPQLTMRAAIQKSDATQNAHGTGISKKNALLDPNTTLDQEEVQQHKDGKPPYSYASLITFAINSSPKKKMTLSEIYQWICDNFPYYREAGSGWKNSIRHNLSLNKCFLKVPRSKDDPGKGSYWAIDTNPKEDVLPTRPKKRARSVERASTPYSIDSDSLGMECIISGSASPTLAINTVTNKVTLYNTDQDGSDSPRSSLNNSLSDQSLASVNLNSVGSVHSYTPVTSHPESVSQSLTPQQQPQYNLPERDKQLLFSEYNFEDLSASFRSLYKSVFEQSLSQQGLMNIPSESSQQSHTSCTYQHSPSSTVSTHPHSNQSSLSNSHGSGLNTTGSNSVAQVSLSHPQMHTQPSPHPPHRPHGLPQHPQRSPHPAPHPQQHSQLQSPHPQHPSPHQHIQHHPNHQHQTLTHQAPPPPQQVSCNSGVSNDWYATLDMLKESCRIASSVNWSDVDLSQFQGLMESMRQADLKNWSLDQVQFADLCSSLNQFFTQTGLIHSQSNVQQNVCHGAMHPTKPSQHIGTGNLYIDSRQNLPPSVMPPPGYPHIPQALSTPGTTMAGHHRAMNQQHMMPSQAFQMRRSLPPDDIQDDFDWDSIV
UniProt Q9NY12: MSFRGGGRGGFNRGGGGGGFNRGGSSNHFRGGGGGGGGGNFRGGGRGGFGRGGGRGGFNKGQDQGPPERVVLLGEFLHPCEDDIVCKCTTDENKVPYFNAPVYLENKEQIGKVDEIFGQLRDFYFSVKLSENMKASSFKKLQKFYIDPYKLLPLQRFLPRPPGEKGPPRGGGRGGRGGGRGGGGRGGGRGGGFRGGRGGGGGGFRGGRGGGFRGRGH
UniProt P04066: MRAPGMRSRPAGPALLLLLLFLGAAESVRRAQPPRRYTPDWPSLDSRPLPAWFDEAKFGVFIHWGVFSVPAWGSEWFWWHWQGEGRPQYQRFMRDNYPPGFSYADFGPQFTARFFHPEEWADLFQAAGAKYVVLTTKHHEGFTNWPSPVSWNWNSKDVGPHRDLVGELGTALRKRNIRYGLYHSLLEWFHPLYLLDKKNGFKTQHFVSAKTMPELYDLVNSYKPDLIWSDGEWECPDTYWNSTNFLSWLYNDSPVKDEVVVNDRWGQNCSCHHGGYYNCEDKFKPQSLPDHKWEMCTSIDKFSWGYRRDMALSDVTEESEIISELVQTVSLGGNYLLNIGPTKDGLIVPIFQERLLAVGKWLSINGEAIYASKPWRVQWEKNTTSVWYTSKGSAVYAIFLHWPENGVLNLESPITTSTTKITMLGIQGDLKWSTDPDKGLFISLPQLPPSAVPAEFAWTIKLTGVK
UniProt Q8NB37: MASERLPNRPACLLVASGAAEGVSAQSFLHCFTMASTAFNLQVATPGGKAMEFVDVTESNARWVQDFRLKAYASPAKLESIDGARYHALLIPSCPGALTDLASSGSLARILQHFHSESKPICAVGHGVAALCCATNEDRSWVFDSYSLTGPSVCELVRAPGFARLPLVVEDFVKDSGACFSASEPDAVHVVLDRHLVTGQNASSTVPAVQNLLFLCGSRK
UniProt P36268: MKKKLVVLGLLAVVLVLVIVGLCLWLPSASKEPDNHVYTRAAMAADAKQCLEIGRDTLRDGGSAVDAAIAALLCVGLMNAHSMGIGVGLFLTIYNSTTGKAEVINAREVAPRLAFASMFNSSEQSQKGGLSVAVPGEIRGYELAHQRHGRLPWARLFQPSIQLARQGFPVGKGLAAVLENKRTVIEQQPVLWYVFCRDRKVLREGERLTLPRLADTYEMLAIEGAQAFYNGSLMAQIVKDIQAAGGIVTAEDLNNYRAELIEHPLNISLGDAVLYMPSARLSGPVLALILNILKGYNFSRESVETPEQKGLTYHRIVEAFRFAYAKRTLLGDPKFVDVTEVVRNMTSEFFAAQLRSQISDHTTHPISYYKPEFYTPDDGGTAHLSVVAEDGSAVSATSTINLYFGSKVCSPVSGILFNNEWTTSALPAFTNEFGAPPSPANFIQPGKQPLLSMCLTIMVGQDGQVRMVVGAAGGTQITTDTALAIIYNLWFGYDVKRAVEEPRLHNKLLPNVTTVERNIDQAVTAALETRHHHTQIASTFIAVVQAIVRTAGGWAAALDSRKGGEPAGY
UniProt Q9BYC5: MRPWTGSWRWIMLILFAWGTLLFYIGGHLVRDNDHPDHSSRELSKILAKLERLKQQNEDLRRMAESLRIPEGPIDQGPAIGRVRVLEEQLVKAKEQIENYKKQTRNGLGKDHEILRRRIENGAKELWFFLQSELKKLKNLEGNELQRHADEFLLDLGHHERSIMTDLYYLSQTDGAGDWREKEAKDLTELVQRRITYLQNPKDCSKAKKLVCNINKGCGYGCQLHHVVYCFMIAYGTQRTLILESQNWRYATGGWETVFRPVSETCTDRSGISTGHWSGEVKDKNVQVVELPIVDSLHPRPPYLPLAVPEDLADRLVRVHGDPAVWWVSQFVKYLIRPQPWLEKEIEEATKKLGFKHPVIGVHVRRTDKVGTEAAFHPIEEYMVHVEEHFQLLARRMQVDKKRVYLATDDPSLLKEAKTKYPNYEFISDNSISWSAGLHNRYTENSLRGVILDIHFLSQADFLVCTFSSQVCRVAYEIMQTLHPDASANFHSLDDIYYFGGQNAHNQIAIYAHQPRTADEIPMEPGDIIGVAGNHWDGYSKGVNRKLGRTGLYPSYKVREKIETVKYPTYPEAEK
UniProt P50395: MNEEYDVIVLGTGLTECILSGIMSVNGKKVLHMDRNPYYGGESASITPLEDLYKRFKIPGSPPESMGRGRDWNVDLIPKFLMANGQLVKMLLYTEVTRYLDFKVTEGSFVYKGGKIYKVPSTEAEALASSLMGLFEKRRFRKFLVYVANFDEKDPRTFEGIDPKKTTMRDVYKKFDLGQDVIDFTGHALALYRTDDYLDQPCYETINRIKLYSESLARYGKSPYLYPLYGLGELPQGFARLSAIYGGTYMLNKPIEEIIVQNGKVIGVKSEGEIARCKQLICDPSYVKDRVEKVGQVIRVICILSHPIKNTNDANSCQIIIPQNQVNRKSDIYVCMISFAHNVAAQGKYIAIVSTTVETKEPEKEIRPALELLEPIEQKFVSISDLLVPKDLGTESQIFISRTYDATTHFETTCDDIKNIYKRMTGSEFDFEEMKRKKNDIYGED
UniProt P51116, whole entry, looked up: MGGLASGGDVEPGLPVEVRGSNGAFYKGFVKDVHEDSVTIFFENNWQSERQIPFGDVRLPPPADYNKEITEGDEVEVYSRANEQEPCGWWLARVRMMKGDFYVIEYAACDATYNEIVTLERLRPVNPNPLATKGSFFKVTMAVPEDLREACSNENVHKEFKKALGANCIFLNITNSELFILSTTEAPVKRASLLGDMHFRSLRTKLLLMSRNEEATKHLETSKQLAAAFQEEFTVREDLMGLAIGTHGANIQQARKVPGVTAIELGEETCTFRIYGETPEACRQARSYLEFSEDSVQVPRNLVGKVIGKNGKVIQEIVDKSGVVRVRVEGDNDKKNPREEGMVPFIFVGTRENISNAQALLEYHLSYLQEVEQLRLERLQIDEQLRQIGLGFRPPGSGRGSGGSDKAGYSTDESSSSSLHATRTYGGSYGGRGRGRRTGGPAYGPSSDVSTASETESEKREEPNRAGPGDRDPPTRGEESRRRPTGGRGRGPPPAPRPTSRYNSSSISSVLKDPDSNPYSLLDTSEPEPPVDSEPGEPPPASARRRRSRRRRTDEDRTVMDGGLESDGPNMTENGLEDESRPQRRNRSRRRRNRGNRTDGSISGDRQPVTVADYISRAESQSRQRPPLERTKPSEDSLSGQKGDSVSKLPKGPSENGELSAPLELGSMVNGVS

compound: C1=CC2=NC=CN=C2C=C1/C=C/3\C(=O)NC(=O)S3; assay: log2 fold change, soluble protein after heating vs DMSO (PISA); higher = thermal stabilisation; K562 cells, 10 uM, 30 min; active = over 0.2 and 3.5 SD of the protein, either way, in both replicates (recomputed)
Summary of the method: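 For each measurement, 10 μM compound was applied for 30 min to K562 cells at 2×10^6 cells/mL. Aliquots were heated for 3 min across 48°C-58°C, pooled, and extracted in PBS with 0.5% NP-40 at 4°C; the supernatant after 21,000xg for 90 min was soluble protein. This was quantified by TMTpro 16plex LC-MS/MS with channel sums equalised, and thermal stability was reported relative to control samples from duplicates, on a log2 fold-change scale.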

log2 fold change, inactive:
GALNT7 (UniProt Q86SF2) 0.019
GEMIN6 (UniProt Q8WXD5) 0.065
GBF1 (UniProt Q92538) 0.028
GCHFR (UniProt P30047) 0.018
GARS1 (UniProt P41250) 0
GDE1 (UniProt Q9NZC3) 0.05
GALNT6 (UniProt Q8NCL4) 0.064
GGCT (UniProt O75223) 0.003
FSCN1 (UniProt Q16658) 0.008
GCSH (UniProt P23434) 0.067
G6PD isoform 2 (UniProt P11413) -0.017
FYCO1 isoform 4 (UniProt Q9BQS8) -0.03
FOXJ3 (UniProt Q9UPW0) 0.098
GAR1 (UniProt Q9NY12) 0.02
FUCA1 (UniProt P04066) -0.004
GATD1 (UniProt Q8NB37) 0.007
GAMT (UniProt Q14353) 0.024
GCAT isoform 2 (UniProt O75600) -0.038
FRYL (UniProt O94915) 0.005
GGT2 isoform 3 (UniProt P36268) 0.033
FUT8 (UniProt Q9BYC5) -0.055
GDI2 (UniProt P50395) -0.001
FXR2 (UniProt P51116) -0.047

As a short view, part of the list above:
log2 fold change, inactive:
FOXJ3 (UniProt Q9UPW0) 0.098
GAR1 (UniProt Q9NY12) 0.02
